Data as given in PubChem BioAssay AID248 (DTP/NCI, 2004).
The list does not hold the whole screen: it is rich in T/C values a quarter to a half above the control, in often repeated tests (any T/C) and in doses without a T/C. Other doses and runs of a compound stand elsewhere. T/C is the treated group as % of the vehicle group. Some entries give survivors of the animals treated and no T/C: the source holds a T/C of zero for them, seemingly a mark for toxic or unscored doses. Some survivor counts are full or nearly so, which does not show that the dose was tolerated: survival well below the control is almost never listed, so the zero probably covers shortened survival too. Counts of survivors are from the toxicity check (mostly the fifth day) where no day follows; animals may have died later. Schedule codes are those of the source, read here as Q, the interval in days (D) or hours (H), X, the number of doses.

System: L1210 leukemia ip in BDF1 mice, survival T/C
Assay: NCI In Vivo Anticancer Drug Screen. Data for tumor model L1210 Leukemia (intraperitoneal) in B6D2F1 (BDF1) mice
Conditions: T/C endpoint: mean survival time, higher T/C = longer survival
[1] = dose: 400.0 mg/kg/injection, schedule: Q04DX002 (ip), vehicle: saline with Tween-80

Structure (SMILES): Cc1ccc(C(O)C(=O)O)c(C)c1 (stereo not drawn)
- survivor count [1]: 2 of 3

Structure (SMILES): NCC(=O)OC(c1ccccc1)(c1ccccc1)c1ccccc1
- survivor count (dose: 400.0 mg/kg/injection, schedule: Q01DX009 (ip), vehicle: Klucel (hydroxypropylcellulose) (HPC)): 2 of 6

Structure (SMILES): C[P+]1(c2ccccc2)CCC(N)=C(C#N)C1 (stereo not drawn)
- survivor count (dose: 200.0 mg/kg/injection, schedule: Q04DX002 (ip), vehicle: saline with Tween-80): 0 of 3
- survivor count [1]: 0 of 3

Structure (SMILES): C[n+]1cc(-c2ccccc2)cc2ccccc21
- survivor count (dose: 150.0 mg/kg/injection, schedule: Q01DX001 (ip), vehicle: saline): 1 of 6
- survivor count (dose: 300.0 mg/kg/injection, schedule: Q01DX001 (ip), vehicle: saline): 0 of 6

Structure (SMILES): N=C(N)c1cccc(NC(=O)c2ccc(C(=O)Nc3cccc(C(=N)N)c3)c([N+](=O)[O-])c2)c1
- survivor count (dose: 32.0 mg/kg/injection, schedule: Q01DX015 (ip), vehicle: water): 0 of 6
- survivor count (dose: 64.0 mg/kg/injection, schedule: Q01DX015 (ip), vehicle: water): 0 of 6

Structure (SMILES): CCN(CC)Cc1nc2nc(Cl)c(Cl)nc2[nH]1
- survivor count (dose: 100.0 mg/kg/injection, schedule: Q01DX009 (ip), vehicle: saline with Tween-80): 3 of 6
- survivor count (dose: 200.0 mg/kg/injection, schedule: Q04DX003 (ip), vehicle: saline with Tween-80): 2 of 6
- survivor count (dose: 400.0 mg/kg/injection, schedule: Q04DX003 (ip), vehicle: saline with Tween-80): 3 of 6

Structure (SMILES): CCOc1ccc2nc(Cl)sc2c1
- survivor count (dose: 200.0 mg/kg/injection, schedule: Q01DX009 (ip), vehicle: Klucel (hydroxypropylcellulose) (HPC)): 0 of 6
- survivor count (dose: 300.0 mg/kg/injection, schedule: Q04DX003 (ip), vehicle: Klucel (hydroxypropylcellulose) (HPC)): 0 of 6
